Data on 2 molecules can be found in paper PMC12284142.

In experiment [1] the target is T1, Interleukin enhancer-binding factor 3 (ILF3) (human (endogenous in SW620)) (UniProt Q12906).
T1 sequence: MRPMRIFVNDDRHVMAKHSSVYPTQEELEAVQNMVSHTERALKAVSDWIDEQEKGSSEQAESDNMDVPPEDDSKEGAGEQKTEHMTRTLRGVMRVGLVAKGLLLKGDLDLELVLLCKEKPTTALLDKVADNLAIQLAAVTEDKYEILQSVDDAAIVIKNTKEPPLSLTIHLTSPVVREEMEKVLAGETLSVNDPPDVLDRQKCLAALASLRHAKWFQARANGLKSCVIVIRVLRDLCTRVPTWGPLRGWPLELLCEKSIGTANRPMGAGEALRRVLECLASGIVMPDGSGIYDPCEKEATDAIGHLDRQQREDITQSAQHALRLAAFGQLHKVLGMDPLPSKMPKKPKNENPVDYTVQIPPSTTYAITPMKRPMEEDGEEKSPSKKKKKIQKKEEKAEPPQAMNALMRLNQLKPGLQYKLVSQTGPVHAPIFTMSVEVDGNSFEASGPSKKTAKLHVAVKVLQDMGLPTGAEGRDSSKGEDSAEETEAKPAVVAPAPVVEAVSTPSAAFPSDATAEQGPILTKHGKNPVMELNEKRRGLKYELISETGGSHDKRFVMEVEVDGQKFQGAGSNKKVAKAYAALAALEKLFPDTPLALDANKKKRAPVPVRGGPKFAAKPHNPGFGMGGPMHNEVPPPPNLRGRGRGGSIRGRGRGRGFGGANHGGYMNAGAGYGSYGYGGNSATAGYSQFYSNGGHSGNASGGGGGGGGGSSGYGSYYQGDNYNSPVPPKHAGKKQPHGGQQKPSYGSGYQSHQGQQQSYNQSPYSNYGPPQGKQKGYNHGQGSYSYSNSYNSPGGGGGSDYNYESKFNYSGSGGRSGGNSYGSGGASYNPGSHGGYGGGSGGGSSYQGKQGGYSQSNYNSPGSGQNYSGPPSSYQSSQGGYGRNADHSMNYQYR
In words: co-IP; SW620 cell lysates (IP lysis buffer), anti-ILF3 or anti-TRIM17 antibody and control IgG overnight at 4 °C, protein A/G magnetic beads, washed with PBS, western blot; also cells treated with TNF-α (40 ng/mL, 24 h).

The next experiment concerns the target T2, Myc-tagged ILF3 (UniProt Q12906).
T2 sequence: T1 sequence
In words: co-IP; HEK293T cells co-transfected with Flag-TRIM17 or control vector and Myc-ILF3 for 48 h, IP and IB; also cells treated with TNF-α (40 ng/mL, 24 h) and MG132 (20 μM, 4 h).

These are yes or no findings as the source states them, for the method shown. In cells and extracts the contact can be indirect. Some entries that bind do so weakly or less than the wild type. For some assays here: Tags and fused reporters may be left off the sequences shown.

B1: E3 ligase TRIM17 (protein, UniProt Q9Y577 1-477)
chain: MEAVELARKLQEEATCSICLDYFTDPVMTTCGHNFCRACIQLSWEKARGKKGRRKRKGSFPCPECREMSPQRNLLPNRLLTKVAEMAQQHPGLQKQDLCQEHHEPLKLFCQKDQSPICVVCRESREHRLHRVLPAEEAVQGYKLKLEEDMEYLREQITRTGNLQAREEQSLAEWQGKVKERRERIVLEFEKMNLYLVEEEQRLLQALETEEEETASRLRESVACLDRQGHSLELLLLQLEERSTQGPLQMLQDMKEPLSRKNNVSVQCPEVAPPTRPRTVCRVPGQIEVLRGFLEDVVPDATSAYPYLLLYESRQRRYLGSSPEGSGFCSKDRFVAYPCAVGQTAFSSGRHYWEVGMNITGDALWALGVCRDNVSRKDRVPKCPENGFWVVQLSKGTKYLSTFSALTPVMLMEPPSHMGIFLDFEAGEVSFYSVSDGSHLHTYSQATFPGPLQPFFCLGAPKSGQMVISTVTMWVKG
On to B1, for which the binding entry in experiment [1] is “binds”.

B2: Flag-tagged TRIM17 (protein, UniProt Q9Y577 1-477)
chain: B1 chain
For the molecule B2, the binding entry in the experiment with Myc-tagged ILF3 is on record as “binds”.
